No constants are given. Whether binding was seen depends on the method and setting. Binding seen in cells or lysates may run through a third protein. Here binding means that the protein was enriched with, or labelled near, the bait; the list need not be complete.
These molecules were tested against Yes-associated protein 1 (YAP1) (human (endogenous in CFBE)) (UniProt P46937) (assay: affinity purification with mass spectrometry; YAP1 immunoprecipitated with anti-YAP1 crosslinked beads from CFBE wt- and F508del-CFTR cell lysates; short SDS-PAGE, in-gel trypsin digest, nanoLC-MS/MS; interactors are proteins identified in at least two of three replicates; the named hits belong to the F508del-CFTR-specific set).

Protein sequences, listed by entry. Tags and fused reporters are not part of them. Residues count along the entry.
UniProt P05121, residues 24-402: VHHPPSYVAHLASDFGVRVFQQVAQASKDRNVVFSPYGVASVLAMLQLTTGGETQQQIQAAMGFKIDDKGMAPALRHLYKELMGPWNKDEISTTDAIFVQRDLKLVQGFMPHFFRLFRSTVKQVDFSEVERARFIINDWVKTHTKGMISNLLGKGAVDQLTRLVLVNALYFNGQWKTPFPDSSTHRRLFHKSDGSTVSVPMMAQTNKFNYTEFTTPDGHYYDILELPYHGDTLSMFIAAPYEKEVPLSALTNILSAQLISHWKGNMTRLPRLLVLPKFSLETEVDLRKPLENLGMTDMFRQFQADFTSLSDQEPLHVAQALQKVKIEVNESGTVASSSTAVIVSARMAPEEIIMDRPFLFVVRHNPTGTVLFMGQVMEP
UniProt Q03135: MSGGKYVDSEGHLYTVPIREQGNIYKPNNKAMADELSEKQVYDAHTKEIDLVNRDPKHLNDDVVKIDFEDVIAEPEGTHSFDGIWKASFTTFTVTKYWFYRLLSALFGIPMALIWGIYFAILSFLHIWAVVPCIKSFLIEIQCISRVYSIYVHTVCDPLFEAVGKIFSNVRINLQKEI
UniProt P04792: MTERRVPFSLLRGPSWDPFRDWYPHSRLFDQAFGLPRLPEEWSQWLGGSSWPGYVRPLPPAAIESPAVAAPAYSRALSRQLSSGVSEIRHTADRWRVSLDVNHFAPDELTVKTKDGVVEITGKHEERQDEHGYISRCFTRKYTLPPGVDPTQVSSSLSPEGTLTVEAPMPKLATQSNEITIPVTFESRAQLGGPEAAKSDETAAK
UniProt P08238: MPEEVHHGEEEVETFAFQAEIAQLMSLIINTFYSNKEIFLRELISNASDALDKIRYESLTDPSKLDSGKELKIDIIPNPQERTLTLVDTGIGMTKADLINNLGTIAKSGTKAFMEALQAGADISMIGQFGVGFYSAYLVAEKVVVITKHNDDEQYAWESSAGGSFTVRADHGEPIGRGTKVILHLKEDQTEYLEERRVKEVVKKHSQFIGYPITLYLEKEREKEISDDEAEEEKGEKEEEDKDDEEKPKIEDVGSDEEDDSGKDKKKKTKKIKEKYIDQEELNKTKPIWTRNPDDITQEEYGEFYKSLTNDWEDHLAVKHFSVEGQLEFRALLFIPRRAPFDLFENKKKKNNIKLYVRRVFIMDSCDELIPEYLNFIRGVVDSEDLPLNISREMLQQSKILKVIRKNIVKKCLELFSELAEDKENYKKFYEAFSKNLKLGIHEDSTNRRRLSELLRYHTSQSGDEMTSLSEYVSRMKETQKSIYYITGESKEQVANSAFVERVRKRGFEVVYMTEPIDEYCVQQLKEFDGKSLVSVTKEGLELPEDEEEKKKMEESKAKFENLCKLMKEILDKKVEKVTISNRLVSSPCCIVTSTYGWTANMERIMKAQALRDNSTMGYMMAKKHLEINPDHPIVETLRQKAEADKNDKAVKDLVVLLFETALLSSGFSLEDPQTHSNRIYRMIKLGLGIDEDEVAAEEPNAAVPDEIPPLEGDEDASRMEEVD
UniProt P06396, residues 28-782: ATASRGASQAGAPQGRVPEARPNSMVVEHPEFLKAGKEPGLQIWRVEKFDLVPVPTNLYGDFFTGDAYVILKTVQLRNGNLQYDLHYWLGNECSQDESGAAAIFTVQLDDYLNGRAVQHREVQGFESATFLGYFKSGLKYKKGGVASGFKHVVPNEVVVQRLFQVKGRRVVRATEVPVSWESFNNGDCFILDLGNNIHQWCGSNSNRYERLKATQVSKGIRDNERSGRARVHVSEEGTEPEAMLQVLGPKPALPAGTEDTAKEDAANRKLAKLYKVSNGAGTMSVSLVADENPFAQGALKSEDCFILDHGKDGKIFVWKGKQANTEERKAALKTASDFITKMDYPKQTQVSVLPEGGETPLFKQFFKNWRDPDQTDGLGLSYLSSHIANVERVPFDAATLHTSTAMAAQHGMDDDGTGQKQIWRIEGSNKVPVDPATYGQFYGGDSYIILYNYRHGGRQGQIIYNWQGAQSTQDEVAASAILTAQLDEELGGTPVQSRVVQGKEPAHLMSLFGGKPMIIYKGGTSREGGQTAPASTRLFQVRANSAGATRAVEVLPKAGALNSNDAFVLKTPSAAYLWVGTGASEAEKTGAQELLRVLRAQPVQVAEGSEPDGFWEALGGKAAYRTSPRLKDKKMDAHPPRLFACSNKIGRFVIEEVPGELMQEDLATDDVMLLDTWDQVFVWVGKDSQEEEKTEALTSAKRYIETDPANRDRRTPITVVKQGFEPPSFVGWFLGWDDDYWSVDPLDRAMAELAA
UniProt P30101, residues 25-505: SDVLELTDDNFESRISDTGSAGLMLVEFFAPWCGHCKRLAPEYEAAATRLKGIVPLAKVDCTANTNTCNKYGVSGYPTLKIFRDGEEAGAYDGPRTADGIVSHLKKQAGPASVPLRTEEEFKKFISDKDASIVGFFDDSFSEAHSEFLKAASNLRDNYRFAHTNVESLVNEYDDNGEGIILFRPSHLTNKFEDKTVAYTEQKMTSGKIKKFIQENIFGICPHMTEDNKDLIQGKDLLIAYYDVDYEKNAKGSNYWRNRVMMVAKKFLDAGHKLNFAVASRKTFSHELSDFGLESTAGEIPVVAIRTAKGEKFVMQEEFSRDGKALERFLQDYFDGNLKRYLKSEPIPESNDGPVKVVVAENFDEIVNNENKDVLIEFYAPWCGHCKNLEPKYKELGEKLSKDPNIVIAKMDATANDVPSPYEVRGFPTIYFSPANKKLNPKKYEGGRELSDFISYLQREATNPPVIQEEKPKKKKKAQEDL
UniProt P08670: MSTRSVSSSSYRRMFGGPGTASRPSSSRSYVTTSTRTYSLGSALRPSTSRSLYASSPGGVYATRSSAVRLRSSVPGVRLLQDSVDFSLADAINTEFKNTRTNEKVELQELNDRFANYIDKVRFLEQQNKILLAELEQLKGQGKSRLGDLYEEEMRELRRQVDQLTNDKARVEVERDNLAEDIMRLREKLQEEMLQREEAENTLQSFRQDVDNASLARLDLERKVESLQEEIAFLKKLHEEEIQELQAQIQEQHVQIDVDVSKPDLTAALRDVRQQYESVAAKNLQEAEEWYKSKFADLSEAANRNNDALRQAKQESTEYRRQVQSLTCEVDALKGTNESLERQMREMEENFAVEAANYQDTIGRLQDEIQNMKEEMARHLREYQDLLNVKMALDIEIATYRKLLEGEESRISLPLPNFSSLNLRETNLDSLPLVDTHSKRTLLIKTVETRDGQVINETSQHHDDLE
UniProt P10809, residues 27-573: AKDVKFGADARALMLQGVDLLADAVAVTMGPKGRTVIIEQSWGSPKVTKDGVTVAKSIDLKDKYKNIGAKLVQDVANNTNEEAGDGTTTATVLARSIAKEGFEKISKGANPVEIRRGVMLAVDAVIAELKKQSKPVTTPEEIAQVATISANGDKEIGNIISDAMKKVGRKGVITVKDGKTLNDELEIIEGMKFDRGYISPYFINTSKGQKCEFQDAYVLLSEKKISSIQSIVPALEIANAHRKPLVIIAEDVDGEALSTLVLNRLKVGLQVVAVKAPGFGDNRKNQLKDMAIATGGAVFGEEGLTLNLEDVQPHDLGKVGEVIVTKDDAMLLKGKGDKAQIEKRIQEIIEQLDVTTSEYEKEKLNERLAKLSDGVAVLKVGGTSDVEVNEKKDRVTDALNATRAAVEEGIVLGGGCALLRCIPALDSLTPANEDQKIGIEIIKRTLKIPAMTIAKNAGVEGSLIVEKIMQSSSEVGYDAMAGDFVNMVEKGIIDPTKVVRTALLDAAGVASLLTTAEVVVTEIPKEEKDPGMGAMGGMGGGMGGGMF

Row | Molecule | binding
1 | plasminogen activator inhibitor 1 (PAI-1, SERPINE1) (from UniProt P05121 24-402) | binds
2 | CAV1 (caveolin-1) (from UniProt Q03135 1-178) | binds
3 | HSPB1 (heat shock protein β-1) (from UniProt P04792 1-205) | binds
4 | TP53 (tumor protein p53) (from UniProt P04637 1-393) | binds
5 | HSP90AB1 (heat shock protein 90 α family class B member 1) (from UniProt P08238 1-724) | binds
6 | Gelsolin (GSN) (from UniProt P06396 28-782) | binds

Now from value to molecule:

Row | binding | Molecule
7 | binds | PDIA3 (protein disulfide-isomerase A3) (from UniProt P30101 25-505)
8 | binds | VIM (vimentin) (from UniProt P08670 1-466)
9 | binds | HSPD1 (from UniProt P10809 27-573)

Biological target: Yes-associated protein 1 (YAP1) (human (endogenous in CFBE)) (UniProt P46937)
Experiment: as above
Remark: another data set of the same source

Row | binding | Molecule
10 | binds | S100A8 (protein, UniProt P05109 1-93) MLTELEKALNSIIDVYHKYSLIKGNFHAVYRDDLKKLLETECPQYIRKKGADVWFKELDINTDGAVNFQEFLILVIKMGVAAHKKSHEESHKE

— article PMC9060002
